Source: PubChem BioAssay AID493246 (Drosophila RNAi Screening Center, 2011)

Purpose: 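Genes fly cells need to grow and stay alive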 (primary screen)
Cell system: Drosophila Kc and S2R+ cells
Reagents: long dsRNA against Drosophila genes
Detection: 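Cell number per well after knock-down, printed as raw plate values; calls were based on per-plate z-scores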
Scale: Kc cell number and S2R+ cell number: higher = more cells remaining
Rule for the call: 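Counted as a hit if cell number falls by a z-score of at least 3 within its plate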
The deposit covers about 21,000 reagents; shown is a random part of those that have a named target and a result. Of all reagents, 429 (2%) got an active call. 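Values are raw and not normalised between plates; calls rest on per-plate z-scores that were not deposited.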 Entries without a mark were called inactive. Reagents against one gene are numbered here. A plus sign joins genes that one reagent is predicted to hit. Not given: the amount of reagent, the time to read-out.

| gene | dsRNA no. | Kc cell number, rep 1 | Kc cell number, rep 2 | S2R+ cell number, rep 1 | S2R+ cell number, rep 2 |
| --- | --- | --- | --- | --- | --- |
| Rph (Rabphilin) | 1 | 1.46e6 | 1.40e6 | 9.63e5 | 1.03e6 |
| CG12116 | 1 | 1.62e6 | 1.56e6 | 1.06e6 | 1.25e6 |
| Caf1-105 (Chromatin assembly factor 1, p105 subunit) | 1 | 1.41e6 | 1.49e6 | 1.23e6 | 1.37e6 |
| inaE (inactivation no afterpotential E) | 1 | 1.64e6 | 1.66e6 | 1.06e6 | 1.19e6 |
| inaE (inactivation no afterpotential E) | 2 | 5.33e5 | – | 8.08e5 | – |
| inaE (inactivation no afterpotential E) | 3 | 1.58e6 | 1.59e6 | 1.09e6 | 1.13e6 |
| inaE (inactivation no afterpotential E) | 4 | 1.65e6 | 1.63e6 | 1.03e6 | 1.12e6 |
| CG12911 | 1 | 1.55e6 | 1.52e6 | 1.29e6 | 1.32e6 |
| Oat (Ornithine aminotransferase precursor) | 1 | 1.51e6 | 1.60e6 | 1.29e6 | 1.31e6 |
| CG10300 | 1 | 1.58e6 | 1.52e6 | 9.76e5 | 1.07e6 |
| trsn (translin) | 1 | 1.73e6 | 1.70e6 | 1.39e6 | 1.55e6 |
| mei-9 (meiotic 9) | 1 | 1.50e6 | 1.48e6 | 1.04e6 | 1.14e6 |
| CG6996 | 1 | 1.64e6 | 1.75e6 | 1.23e6 | 1.40e6 |
| CG5921 | 1 | 1.20e6 | 1.42e6 | 1.11e6 | 1.19e6 |
| CG5921 | 2 | 1.51e6 | 1.51e6 | 1.08e6 | 1.24e6 |
| fj (four-jointed) | 1 | 1.59e6 | 1.68e6 | 1.22e6 | 1.37e6 |
| Proc-R (Proctolin receptor) | 1 | 1.50e6 | 1.46e6 | 1.04e6 | 1.15e6 |
| CG10663 | 1 | 1.57e6 | 1.53e6 | 1.37e6 | 1.45e6 |
| UGP (UDP-glucose pyrophosphorylase) | 1 | 1.41e6 | 1.50e6 | 1.25e6 | 1.17e6 |
| CG13733 | 1 | 1.19e6 | 1.48e6 | 1.31e6 | 1.40e6 |
| Cdep (Chondrocyte-derived ezrin-like domain containing protein) | 1 | 1.51e6 | 1.70e6 | 1.24e6 | 1.35e6 |
| Cdep (Chondrocyte-derived ezrin-like domain containing protein) | 2 | 1.63e6 | 1.62e6 | 1.24e6 | 1.32e6 |
| Cdep (Chondrocyte-derived ezrin-like domain containing protein) | 3 | 1.81e6 | 2.01e6 | 1.31e6 | 1.34e6 |
| Incenp (Inner centromere protein) | 1 | 1.57e6 | 1.57e6 | 1.20e6 | 1.36e6 |
| CG4836 | 1 | 1.51e6 | 1.50e6 | 1.08e6 | 1.18e6 |
| SmD1 (Small ribonucleoprotein particle protein SmD1) | 1 | 1.23e6 | 1.29e6 | 8.63e5 | 1.06e6 |
| NC2beta (Negative Cofactor 2beta) | 1 | 1.45e6 | 1.47e6 | 1.18e6 | 1.24e6 |
| cyst (cysts) | 1 | 1.26e6 | 1.41e6 | 1.36e6 | 1.44e6 |
| Cyp6g2 (Cytochrome P450 6g2) | 1 | 1.51e6 | 1.59e6 | 1.35e6 | 1.42e6 |
| CG13159 | 1 | 1.67e6 | 1.56e6 | 1.23e6 | 1.31e6 |
| phr6-4 ((6-4)-photolyase) | 1 | 1.71e6 | 1.91e6 | 1.44e6 | 3.21e5 |
| CG6236 | 1 | 1.60e6 | 1.65e6 | 1.38e6 | 1.46e6 |
| CG13449 | 1 | 1.53e6 | 1.52e6 | 1.18e6 | 1.35e6 |
| hdm (hold'em) | 1 | 1.47e6 | 1.45e6 | 1.00e6 | 1.14e6 |
| CG12121 | 1 | 1.57e6 | 1.42e6 | 1.03e6 | 1.12e6 |
| CG34174 | 1 | 1.65e6 | 1.62e6 | 1.03e6 | 1.18e6 |
| RpS15Ab + RpS15Aa | 1 | 9.90e5 | 1.02e6 | 7.87e5 | 9.01e5 |
| RpS15Ab + RpS15Aa | 2 | 9.84e5 (active) | 9.76e5 | 7.31e5 | 8.24e5 |
| snoRNA:Me28S-A982b + Uhg4 + snoRNA:Me28S-G3255a + 1 more | 1 | 1.43e6 | 1.55e6 | 9.44e5 | 1.04e6 |
| CG9864 | 1 | 1.58e6 | 1.60e6 | 1.15e6 | 1.36e6 |
| yellow-d | 1 | 1.52e6 | 1.65e6 | 1.36e6 | 1.36e6 |
| CG11581 | 1 | 1.50e6 | 1.53e6 | 1.07e6 | 1.14e6 |
| Sf3b3 (Splicing factor 3b subunit 3) | 1 | 9.66e5 | 1.16e6 | 6.84e5 | 6.98e5 |
| CG15172 | 1 | 1.64e6 | 1.69e6 | 1.22e6 | 2.51e5 |
| shu (shutdown) | 1 | 1.39e6 | 1.46e6 | 1.12e6 | 1.15e6 |
| CG9411 | 1 | 5.73e5 | – | 7.77e5 | – |
| Efhc1.2 (EF-hand domain containing 1.2) | 1 | 1.35e6 | 1.41e6 | 1.19e6 | 1.19e6 |
| CG14777 | 1 | 1.55e6 | 1.50e6 | 1.04e6 | 1.14e6 |
| I-t (inhibitor-t) | 1 | 1.51e6 | 1.55e6 | 1.24e6 | 1.31e6 |
| CR40450 + CG32767 | 1 | 5.00e5 | – | 6.98e5 | – |
| CG9360 | 1 | 1.73e6 | 1.56e6 | 1.05e6 | 1.12e6 |
| SdhBL (Succinate dehydrogenase, subunit B (iron-sulfur)-like) | 1 | 1.43e6 | 1.48e6 | 1.04e6 | 1.13e6 |
| igl (igloo) | 1 | 1.02e6 (active) | 9.87e5 | 6.22e5 | 6.31e5 |
| Prestin | 1 | 1.13e6 | 1.21e6 | 1.08e6 | 1.19e6 |
| Vha100-5 (Vacuolar H[+] ATPase 100kD subunit 5) | 1 | 1.71e6 | 1.74e6 | 1.22e6 | 1.33e6 |
| CG13795 | 1 | 1.64e6 | 1.60e6 | 1.15e6 | 1.31e6 |
| Serinc (Serine incorporator) | 1 | 1.46e6 | 1.52e6 | 1.39e6 | 1.51e6 |
| trn (tartan) | 1 | 1.40e6 | 1.66e6 | 1.24e6 | 1.30e6 |
| CG42449 | 1 | 1.28e6 | 1.37e6 | 1.02e6 | 1.13e6 |
| CG10038 | 1 | 1.49e6 | 1.56e6 | 1.22e6 | 1.31e6 |
| Nop56 | 1 | 1.44e6 | 1.53e6 | 1.03e6 | 1.09e6 |
| mRpL24 (mitochondrial ribosomal protein L24) | 1 | 9.63e5 | 1.49e6 | 4.24e5 | 1.51e5 |
| CG31710 | 1 | 1.38e6 | 1.39e6 | 1.07e6 | 1.16e6 |
| Cyp6a23 (Cytochrome P450 6a23) | 1 | 1.68e6 | 1.73e6 | 1.47e6 | 1.46e6 |
| CG5969 | 1 | 1.52e6 | 1.64e6 | 1.18e6 | 1.23e6 |
| CG13074 | 1 | 1.26e6 | 1.34e6 | 1.30e6 | 1.36e6 |
| Osi24 (Osiris 24) | 1 | 1.59e6 | 1.77e6 | 1.32e6 | 1.45e6 |
| Sam-S (S-adenosylmethionine Synthetase) | 1 | 1.27e6 | 1.24e6 | 5.95e5 | 5.31e5 |
| Sf3b2 (Splicing factor 3b subunit 2) | 1 | 8.45e5 | 1.02e6 | 3.43e5 | 5.41e5 |
| phol (pleiohomeotic like) | 1 | 1.34e6 | 1.39e6 | 1.18e6 | 1.19e6 |
| His1:CG33816 + His1:CG33828 + His1:CG33819 + 21 more | 1 | 1.33e6 | 1.34e6 | 1.06e6 | 1.23e6 |
| Osi20 (Osiris 20) | 1 | 1.55e6 | 1.70e6 | 1.24e6 | 1.35e6 |
| CG33288 | 1 | 1.67e6 | 1.75e6 | 1.15e6 | 1.38e6 |
| Cubn (Cubilin) | 1 | 5.89e5 | – | 9.15e5 | – |
| CG33120 | 1 | 1.31e6 | 1.30e6 | 1.32e6 | 1.29e6 |
